The other results are listed elsewhere or left out.

Chains of the proteins cited; added tags and fusions are not shown. Lines headed by an entry give the natural chain unless they say otherwise; changes in a name come on top.
UniProt P35612: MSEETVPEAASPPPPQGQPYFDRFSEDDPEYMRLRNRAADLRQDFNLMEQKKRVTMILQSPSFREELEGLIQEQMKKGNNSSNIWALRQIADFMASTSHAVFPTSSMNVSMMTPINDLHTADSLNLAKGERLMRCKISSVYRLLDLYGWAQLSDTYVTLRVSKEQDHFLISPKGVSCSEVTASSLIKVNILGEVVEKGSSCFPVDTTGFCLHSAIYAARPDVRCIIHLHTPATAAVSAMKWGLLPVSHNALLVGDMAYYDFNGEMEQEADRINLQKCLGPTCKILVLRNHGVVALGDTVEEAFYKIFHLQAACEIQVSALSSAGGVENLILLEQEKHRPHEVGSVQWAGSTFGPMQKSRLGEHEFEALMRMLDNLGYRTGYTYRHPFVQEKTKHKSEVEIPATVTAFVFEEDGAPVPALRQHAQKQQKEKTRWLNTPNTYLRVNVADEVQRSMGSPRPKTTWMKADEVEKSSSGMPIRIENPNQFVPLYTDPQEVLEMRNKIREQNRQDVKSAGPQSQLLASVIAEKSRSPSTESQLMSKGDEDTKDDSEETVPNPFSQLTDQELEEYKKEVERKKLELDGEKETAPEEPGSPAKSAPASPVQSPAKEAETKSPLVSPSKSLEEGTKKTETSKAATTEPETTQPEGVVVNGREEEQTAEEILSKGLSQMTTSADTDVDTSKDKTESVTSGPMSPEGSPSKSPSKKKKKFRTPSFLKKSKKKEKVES
UniProt Q9NZD4: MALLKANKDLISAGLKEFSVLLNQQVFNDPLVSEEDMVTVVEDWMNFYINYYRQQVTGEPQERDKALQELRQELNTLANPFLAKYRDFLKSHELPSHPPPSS
UniProt Q86TW2: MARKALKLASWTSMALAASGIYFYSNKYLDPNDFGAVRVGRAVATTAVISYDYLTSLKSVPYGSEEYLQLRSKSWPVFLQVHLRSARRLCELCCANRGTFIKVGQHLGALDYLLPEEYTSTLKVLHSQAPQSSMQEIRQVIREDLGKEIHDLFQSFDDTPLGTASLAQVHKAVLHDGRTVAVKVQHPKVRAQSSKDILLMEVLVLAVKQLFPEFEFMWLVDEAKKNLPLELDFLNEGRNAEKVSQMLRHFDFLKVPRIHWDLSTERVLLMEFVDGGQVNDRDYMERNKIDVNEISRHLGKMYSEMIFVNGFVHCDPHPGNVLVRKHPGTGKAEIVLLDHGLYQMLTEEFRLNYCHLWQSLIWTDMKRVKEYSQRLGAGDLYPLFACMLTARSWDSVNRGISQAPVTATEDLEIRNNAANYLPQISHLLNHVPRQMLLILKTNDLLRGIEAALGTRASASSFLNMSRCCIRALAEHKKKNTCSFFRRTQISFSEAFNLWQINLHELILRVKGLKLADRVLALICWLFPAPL
UniProt Q96EY9: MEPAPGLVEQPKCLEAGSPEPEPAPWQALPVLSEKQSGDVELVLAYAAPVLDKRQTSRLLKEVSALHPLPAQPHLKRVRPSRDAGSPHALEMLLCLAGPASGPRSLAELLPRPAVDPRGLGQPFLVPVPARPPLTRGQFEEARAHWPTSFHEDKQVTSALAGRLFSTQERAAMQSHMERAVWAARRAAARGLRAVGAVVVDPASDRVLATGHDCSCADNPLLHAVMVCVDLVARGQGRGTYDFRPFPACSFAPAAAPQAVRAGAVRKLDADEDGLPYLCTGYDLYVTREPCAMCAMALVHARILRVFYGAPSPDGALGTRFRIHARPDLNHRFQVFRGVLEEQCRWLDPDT
UniProt Q96M93: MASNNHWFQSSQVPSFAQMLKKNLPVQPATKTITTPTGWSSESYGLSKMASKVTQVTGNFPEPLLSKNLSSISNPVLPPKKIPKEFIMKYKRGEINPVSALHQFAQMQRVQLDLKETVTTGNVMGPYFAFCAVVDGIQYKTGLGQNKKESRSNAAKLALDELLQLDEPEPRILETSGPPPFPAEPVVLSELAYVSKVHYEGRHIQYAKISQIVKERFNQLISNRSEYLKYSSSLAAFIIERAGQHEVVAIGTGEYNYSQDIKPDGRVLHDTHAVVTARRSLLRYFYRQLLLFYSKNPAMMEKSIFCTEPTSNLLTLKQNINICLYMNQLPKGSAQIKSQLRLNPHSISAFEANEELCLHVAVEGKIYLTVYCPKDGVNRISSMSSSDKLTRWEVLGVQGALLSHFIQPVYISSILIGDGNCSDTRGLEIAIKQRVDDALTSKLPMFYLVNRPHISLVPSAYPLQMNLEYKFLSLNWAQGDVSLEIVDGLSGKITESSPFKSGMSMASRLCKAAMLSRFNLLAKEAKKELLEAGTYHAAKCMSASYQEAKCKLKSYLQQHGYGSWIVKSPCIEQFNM
UniProt Q3LIE5: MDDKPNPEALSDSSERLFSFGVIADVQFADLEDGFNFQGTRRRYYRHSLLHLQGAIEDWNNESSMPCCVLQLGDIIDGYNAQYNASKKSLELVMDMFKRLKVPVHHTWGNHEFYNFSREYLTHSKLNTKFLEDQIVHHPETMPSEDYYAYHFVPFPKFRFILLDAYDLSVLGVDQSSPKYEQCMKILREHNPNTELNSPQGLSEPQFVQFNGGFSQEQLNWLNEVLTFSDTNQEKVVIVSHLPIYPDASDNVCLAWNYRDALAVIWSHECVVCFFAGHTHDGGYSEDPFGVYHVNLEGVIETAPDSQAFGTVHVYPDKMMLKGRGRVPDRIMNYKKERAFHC
UniProt P35611: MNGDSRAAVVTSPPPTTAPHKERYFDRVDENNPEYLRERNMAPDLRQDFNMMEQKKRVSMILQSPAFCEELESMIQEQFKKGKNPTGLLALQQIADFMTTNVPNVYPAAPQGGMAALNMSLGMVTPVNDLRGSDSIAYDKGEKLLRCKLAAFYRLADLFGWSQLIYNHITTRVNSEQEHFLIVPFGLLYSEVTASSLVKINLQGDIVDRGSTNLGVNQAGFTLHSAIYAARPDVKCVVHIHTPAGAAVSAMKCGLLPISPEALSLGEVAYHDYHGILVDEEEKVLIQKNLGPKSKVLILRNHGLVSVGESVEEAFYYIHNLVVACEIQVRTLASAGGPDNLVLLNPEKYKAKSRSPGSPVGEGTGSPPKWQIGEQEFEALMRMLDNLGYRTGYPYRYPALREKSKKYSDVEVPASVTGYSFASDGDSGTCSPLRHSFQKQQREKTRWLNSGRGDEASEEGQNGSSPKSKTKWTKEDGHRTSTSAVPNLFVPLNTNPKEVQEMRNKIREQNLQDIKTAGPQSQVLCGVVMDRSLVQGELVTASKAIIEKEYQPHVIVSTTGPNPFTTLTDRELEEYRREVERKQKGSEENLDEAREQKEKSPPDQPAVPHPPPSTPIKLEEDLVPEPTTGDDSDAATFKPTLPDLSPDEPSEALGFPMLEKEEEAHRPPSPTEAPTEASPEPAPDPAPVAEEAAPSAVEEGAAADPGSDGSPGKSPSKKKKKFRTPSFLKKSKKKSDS
UniProt P43652: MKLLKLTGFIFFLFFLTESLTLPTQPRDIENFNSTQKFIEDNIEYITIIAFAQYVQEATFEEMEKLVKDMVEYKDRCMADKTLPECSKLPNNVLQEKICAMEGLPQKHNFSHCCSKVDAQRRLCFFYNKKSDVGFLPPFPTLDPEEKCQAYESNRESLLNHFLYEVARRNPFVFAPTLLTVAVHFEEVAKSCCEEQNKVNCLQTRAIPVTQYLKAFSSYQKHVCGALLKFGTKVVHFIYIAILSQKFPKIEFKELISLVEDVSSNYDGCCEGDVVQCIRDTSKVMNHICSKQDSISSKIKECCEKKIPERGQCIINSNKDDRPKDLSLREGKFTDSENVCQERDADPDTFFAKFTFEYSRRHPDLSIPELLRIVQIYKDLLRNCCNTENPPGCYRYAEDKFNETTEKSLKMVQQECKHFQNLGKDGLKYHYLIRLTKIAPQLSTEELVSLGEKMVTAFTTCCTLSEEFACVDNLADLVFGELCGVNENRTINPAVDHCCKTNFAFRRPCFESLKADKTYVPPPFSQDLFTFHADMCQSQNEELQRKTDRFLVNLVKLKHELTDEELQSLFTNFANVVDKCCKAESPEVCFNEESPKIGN
UniProt Q8N157: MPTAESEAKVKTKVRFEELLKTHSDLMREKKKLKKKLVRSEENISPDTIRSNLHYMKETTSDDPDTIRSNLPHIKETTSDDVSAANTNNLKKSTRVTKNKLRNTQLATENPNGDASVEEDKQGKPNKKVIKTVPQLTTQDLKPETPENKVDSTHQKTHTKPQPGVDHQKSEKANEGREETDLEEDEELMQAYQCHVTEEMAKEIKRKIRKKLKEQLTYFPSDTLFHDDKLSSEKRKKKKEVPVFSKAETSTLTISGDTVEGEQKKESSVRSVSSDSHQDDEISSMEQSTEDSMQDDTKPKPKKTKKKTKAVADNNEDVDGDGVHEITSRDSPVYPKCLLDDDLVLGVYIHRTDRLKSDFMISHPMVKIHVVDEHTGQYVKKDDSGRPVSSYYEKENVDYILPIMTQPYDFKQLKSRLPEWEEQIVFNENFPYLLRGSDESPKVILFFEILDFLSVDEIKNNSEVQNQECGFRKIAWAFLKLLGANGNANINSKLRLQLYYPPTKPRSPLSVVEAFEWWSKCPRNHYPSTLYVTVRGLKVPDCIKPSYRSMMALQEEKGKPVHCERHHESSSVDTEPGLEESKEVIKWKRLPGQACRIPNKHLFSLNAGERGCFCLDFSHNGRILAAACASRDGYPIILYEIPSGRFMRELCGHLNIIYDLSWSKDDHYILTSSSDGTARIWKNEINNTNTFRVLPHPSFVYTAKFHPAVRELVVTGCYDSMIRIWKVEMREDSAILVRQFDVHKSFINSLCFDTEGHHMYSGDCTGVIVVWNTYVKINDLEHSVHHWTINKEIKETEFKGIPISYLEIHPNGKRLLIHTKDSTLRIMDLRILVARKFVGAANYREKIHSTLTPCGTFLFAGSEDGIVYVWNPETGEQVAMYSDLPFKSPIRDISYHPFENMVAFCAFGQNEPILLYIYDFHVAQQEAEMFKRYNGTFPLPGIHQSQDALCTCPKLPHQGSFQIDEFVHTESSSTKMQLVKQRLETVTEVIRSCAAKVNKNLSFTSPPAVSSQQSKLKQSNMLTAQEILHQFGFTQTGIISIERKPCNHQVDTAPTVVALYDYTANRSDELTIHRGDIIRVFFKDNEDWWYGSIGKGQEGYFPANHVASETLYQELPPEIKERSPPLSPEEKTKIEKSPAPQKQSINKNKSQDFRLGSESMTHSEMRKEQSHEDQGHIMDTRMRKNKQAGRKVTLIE
UniProt Q63HM1: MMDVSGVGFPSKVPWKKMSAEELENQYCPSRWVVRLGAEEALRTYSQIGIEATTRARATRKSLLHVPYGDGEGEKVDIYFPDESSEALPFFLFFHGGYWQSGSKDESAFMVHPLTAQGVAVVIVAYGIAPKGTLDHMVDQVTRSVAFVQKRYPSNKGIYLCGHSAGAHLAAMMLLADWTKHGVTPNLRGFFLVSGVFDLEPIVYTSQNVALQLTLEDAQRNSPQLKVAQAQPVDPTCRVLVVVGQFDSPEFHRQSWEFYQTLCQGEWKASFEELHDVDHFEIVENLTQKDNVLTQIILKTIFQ
UniProt Q9Y4W6: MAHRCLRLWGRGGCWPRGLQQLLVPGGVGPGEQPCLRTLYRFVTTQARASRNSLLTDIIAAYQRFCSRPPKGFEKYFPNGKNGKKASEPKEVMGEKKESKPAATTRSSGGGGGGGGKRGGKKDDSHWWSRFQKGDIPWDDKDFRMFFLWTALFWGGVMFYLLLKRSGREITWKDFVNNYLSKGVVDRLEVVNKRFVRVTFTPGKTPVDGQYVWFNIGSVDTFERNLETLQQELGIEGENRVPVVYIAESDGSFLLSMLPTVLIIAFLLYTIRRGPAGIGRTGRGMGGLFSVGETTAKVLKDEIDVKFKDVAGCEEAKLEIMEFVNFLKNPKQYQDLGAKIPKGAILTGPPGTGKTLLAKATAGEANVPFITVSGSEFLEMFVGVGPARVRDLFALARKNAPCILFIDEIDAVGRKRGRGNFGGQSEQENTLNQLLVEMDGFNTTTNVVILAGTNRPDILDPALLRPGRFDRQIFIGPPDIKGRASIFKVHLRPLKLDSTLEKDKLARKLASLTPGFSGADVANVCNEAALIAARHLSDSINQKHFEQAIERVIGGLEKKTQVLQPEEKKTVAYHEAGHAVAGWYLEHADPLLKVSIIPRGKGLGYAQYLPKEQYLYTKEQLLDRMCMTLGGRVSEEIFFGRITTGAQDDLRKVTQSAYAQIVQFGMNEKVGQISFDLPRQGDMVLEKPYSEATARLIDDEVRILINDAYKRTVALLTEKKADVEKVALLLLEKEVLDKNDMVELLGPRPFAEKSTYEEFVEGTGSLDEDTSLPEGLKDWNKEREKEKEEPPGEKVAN
UniProt Q04828: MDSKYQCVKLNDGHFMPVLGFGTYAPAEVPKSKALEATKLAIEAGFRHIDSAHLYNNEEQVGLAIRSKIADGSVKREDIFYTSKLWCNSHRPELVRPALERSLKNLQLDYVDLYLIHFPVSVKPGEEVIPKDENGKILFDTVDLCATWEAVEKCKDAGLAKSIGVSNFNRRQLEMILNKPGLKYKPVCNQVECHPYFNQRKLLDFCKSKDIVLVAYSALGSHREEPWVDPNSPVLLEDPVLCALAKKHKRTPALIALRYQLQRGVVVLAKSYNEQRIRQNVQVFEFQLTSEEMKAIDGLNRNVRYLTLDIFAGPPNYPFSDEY

Compound in this test: NCC(=O)Nc1ccc(-n2nc(C(F)(F)F)cc2-c2ccc3c(ccc4ccccc43)c2)cc1
Briefly: log2 fold change, soluble protein after heating vs DMSO (PISA); higher = thermal stabilisation; K562 lysate, 10 uM; active = over 0.2 and 3.5 SD of the protein, either way, in both replicates (recomputed). In a few lines:
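Quantification was by TMTpro 16plex LC-MS/MS with equalised channel sums, applied to the supernatant after 21,000xg for 90 min. Samples were crude K562 extract at 1 mg/mL protein in PBS pH 7.4 with 1 mM MgCl2, treated with 10 μM compound for 30 min, heated for 3 min across 48°C-58°C, pooled and brought to 0.5% NP-40 at 4°C. Values are log-two fold changes in thermal stability relative to solvent controls, from duplicates.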
In the case of ADD2 isoform 9 (UniProt P35612), the log2 fold change is inactive: 0.074. As to AHSP (UniProt Q9NZD4), the log2 fold change was inactive: 0.033.

Regarding ADCK1 (UniProt Q86TW2), the log2 fold change was inactive: 0.277. The value for ADAT3 (UniProt Q96EY9) was inactive: 0.032; that for ADAD1 (UniProt Q96M93) was inactive: -0.001; that for ADPRH (UniProt P54922) was inactive: -0.376.

For ADPRM (UniProt Q3LIE5), the log2 fold change is inactive: 0.135.

In the case of ADD1 isoform 4 (UniProt P35611), the log2 fold change is inactive: 0.037.

With ACTB (UniProt C9JTX5), the log2 fold change is inactive: 0.185. Turning to AFM (UniProt P43652), the log2 fold change was inactive: -0.11. With AHI1 (UniProt Q8N157), the log2 fold change is inactive: 0.019. AFMID isoform 2 (UniProt Q63HM1): the log2 fold change was inactive: -0.015. The value for AFG3L2 (UniProt Q9Y4W6) was inactive: -0.006. The value for AKR1C1 (UniProt Q04828) was inactive: 0.018.

These data come from the supplement of paper PMC10849652.
